Laboratory results reported in the supplement of paper PMC10849652.
The other results are listed elsewhere or left out.

The chains behind the UniProt entries cited, without tags or fusion partners. Where a name states a change or a piece, a line headed by the entry shows the natural chain unless it says otherwise.
UniProt O15014: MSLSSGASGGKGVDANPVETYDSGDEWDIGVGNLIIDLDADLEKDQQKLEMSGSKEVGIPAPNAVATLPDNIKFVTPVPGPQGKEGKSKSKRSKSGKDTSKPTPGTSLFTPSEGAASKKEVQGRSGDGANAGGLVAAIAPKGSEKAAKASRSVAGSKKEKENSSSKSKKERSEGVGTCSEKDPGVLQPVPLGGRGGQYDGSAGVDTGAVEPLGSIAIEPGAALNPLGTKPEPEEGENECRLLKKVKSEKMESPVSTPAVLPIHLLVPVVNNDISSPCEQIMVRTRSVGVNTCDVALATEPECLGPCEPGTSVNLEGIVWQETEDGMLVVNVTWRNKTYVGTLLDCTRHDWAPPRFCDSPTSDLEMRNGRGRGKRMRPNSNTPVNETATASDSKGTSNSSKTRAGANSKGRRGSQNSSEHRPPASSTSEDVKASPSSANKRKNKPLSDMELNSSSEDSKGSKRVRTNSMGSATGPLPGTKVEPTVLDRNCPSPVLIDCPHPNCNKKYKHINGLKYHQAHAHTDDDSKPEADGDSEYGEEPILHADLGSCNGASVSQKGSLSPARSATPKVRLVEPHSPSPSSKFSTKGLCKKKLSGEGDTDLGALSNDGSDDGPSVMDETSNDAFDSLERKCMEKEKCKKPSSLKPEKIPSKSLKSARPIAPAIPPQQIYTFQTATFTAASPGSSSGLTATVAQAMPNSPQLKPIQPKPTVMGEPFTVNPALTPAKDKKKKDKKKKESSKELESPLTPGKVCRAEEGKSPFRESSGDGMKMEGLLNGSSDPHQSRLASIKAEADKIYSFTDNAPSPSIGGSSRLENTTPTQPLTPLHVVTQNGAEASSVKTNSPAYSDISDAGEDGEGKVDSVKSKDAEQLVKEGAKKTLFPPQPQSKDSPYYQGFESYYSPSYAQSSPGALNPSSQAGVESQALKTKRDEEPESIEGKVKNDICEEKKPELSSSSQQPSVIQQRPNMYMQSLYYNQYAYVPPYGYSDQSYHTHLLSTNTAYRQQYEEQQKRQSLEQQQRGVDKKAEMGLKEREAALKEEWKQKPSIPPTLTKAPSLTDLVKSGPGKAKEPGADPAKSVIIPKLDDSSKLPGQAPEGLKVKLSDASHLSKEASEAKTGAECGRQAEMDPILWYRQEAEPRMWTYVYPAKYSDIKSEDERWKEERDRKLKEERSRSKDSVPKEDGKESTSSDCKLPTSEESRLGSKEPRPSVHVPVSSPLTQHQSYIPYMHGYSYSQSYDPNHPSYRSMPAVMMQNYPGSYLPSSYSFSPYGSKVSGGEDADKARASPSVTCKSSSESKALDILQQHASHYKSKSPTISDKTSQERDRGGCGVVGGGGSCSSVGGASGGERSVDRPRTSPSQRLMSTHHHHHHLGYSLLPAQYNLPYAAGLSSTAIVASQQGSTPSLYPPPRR
UniProt P17098: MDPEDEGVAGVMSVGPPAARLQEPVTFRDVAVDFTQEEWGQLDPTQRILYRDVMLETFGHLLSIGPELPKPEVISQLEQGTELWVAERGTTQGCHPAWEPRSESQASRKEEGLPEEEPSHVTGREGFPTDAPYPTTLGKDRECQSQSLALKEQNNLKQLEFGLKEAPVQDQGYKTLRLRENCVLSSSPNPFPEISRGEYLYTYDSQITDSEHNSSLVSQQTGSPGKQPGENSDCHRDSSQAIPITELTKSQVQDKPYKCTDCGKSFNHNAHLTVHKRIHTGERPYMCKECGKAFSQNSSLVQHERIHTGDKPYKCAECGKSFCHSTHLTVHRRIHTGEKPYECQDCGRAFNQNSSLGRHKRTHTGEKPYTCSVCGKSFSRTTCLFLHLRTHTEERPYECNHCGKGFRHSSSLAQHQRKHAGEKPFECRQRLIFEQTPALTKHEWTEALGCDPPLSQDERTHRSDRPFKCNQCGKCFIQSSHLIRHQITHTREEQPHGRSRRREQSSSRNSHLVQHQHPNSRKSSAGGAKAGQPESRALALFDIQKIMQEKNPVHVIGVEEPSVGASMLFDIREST
UniProt O43264: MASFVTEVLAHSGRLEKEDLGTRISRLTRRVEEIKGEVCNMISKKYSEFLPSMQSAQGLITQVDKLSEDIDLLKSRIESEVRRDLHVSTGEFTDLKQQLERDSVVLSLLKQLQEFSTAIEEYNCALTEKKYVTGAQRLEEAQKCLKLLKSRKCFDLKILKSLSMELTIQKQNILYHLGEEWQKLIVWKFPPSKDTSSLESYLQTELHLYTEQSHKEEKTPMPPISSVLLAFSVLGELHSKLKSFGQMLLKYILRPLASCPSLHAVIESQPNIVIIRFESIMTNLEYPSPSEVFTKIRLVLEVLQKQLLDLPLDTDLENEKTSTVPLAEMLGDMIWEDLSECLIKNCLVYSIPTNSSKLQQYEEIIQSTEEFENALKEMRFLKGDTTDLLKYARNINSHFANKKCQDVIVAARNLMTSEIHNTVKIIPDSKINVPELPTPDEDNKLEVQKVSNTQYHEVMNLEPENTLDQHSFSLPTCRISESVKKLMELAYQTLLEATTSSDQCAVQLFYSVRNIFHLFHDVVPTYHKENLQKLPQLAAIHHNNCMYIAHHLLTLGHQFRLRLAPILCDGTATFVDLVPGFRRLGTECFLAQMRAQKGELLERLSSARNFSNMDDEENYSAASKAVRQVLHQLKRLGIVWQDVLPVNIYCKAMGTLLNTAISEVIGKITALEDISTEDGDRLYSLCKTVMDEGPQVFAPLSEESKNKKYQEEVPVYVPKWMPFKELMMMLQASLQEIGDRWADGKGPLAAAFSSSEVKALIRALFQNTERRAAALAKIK
UniProt P17026: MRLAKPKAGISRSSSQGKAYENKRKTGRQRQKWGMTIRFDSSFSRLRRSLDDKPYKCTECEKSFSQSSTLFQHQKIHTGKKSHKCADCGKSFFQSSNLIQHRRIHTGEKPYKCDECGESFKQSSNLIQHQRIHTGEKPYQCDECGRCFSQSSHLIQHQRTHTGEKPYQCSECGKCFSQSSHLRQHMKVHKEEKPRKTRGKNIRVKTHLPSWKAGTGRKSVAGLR
UniProt Q9Y5V0: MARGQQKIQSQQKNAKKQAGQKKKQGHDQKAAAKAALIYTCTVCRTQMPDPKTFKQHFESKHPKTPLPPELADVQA
UniProt Q9UID6: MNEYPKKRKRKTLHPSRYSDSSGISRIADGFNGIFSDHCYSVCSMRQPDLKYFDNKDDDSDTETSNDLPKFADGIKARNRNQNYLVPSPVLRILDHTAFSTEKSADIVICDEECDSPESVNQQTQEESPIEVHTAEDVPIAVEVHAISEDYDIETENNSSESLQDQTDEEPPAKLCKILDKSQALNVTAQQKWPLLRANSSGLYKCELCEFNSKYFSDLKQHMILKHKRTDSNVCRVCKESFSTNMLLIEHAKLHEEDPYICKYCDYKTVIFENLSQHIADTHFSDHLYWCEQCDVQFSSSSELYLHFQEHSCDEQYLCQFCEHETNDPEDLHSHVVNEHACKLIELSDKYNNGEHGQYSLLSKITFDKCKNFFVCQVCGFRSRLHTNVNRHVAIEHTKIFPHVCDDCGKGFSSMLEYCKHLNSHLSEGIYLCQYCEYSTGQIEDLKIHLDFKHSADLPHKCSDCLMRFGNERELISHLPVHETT
UniProt O43670: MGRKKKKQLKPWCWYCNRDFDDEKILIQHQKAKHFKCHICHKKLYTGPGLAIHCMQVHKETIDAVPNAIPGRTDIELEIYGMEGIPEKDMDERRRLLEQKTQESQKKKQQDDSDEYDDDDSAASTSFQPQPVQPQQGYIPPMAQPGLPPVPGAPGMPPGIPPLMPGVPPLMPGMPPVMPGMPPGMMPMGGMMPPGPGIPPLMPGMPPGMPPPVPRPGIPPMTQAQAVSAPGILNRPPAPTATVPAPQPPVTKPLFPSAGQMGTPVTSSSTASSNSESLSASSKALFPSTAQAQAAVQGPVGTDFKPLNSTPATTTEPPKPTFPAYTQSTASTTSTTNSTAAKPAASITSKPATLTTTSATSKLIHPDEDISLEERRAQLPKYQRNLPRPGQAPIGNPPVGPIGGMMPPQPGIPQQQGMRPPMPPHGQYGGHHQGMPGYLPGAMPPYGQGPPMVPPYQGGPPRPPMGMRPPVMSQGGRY
UniProt Q969S3: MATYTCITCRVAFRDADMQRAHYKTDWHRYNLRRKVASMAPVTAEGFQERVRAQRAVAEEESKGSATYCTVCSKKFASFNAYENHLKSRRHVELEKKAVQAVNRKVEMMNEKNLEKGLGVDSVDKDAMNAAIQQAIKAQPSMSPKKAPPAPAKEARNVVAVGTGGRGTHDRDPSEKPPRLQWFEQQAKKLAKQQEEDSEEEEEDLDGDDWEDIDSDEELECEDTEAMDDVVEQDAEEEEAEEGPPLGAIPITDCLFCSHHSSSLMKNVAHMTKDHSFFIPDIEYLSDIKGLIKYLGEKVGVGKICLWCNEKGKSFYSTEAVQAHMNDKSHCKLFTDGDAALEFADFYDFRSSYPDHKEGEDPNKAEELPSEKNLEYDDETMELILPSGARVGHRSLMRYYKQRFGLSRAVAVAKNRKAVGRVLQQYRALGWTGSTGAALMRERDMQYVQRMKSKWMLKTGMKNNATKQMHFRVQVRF
UniProt Q96IR2: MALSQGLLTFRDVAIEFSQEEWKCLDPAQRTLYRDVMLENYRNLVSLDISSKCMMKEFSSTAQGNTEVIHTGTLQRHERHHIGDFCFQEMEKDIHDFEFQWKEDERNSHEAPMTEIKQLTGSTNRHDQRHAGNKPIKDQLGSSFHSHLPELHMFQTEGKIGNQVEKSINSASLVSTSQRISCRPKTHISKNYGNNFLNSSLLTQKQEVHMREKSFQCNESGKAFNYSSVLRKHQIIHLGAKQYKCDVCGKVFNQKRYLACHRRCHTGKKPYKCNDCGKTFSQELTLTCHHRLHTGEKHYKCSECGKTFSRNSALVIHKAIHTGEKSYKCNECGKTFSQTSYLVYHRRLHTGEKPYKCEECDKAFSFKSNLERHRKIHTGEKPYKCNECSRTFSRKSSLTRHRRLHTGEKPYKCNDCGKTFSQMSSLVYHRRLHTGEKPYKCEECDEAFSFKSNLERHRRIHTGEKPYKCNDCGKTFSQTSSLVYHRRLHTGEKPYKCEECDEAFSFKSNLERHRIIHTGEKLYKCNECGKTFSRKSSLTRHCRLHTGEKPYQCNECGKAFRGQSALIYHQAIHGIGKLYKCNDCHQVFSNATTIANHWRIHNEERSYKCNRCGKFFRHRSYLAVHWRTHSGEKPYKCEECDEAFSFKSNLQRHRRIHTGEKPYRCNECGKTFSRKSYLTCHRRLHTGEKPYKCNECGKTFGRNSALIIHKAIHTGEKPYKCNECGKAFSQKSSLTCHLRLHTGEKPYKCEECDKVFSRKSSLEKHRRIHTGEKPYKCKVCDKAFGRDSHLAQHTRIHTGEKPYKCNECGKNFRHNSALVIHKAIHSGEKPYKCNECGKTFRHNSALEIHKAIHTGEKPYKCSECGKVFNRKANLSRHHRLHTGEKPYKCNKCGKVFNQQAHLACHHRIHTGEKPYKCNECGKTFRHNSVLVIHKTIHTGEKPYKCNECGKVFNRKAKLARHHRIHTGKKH
UniProt P17029: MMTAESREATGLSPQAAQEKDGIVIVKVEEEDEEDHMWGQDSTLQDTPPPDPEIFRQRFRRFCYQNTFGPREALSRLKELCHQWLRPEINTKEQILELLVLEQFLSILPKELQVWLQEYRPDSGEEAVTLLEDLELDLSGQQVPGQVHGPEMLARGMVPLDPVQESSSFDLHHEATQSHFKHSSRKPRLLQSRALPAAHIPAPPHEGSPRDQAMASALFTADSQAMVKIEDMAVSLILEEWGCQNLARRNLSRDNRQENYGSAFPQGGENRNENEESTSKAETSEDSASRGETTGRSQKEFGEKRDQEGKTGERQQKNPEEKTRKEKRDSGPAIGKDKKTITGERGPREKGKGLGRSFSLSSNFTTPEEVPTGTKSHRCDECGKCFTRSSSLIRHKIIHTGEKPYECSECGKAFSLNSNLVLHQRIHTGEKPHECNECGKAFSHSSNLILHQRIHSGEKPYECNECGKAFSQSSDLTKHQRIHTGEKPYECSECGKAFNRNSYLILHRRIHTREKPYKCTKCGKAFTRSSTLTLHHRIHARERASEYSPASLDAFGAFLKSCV
UniProt Q969J2: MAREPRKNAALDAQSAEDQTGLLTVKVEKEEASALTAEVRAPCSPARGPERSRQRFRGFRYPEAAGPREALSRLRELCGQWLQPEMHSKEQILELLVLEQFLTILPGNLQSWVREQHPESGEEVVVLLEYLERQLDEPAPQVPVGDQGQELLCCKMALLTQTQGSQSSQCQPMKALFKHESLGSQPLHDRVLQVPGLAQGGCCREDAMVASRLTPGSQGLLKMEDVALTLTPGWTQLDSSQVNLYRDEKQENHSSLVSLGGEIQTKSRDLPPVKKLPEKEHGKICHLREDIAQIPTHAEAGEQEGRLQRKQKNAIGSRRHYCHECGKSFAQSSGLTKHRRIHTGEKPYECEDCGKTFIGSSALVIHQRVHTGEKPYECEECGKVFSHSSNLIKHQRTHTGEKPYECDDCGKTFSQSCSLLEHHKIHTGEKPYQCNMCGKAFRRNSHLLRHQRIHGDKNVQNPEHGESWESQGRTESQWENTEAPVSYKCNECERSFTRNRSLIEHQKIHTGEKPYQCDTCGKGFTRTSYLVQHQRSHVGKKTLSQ

These targets were tested with O=C1NC(=O)C(c2cnc3ccccn23)=C1c1cn2c3c(cc(F)cc13)CN(C(=O)N1CCCCC1)CC2 (assay: log2 fold change, soluble protein after heating vs DMSO (PISA); higher = thermal stabilisation; K562 lysate, 10 uM; active = over 0.2 and 3.5 SD of the protein, either way, in both replicates (recomputed)).
Outline: (§1)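 K562 pellets were dounce-homogenised in PBS pH 7.4 containing 1 mM MgCl2, and the crude extract, at 1 mg/mL protein, was exposed to 10 μM compound for 30 min. Aliquots were heated for 3 min across 48°C-58°C, pooled, brought to 0.5% NP-40 at 4°C and spun at 21,000xg for 90 min, with the supernatant taken as soluble protein. TMTpro 16plex LC-MS/MS with equalised channel sums quantified that protein. Values are log-two fold changes in thermal stability relative to solvent controls, taken from duplicates.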

log2 fold change, inactive:
ZNF609 (UniProt O15014) -0.013
ZNF316 (UniProt A6NFI3) 0.012
ZNF672 (UniProt Q499Z4) -0.008
ZNF8 (UniProt P17098) -0.087
ZNF92 (UniProt Q03936) 0.026
ZNF629 (UniProt Q9UEG4) 0.028
ZNF76 (UniProt P36508) -0.005
ZNF852 (UniProt Q6ZMS4) 0.233
ZMYM3 (UniProt Q14202) -0.019
ZW10 (UniProt O43264) 0
ZNF22 (UniProt P17026) 0.058
ZNF131 (UniProt P52739) 0
ZNF280B (UniProt Q86YH2) -0.095
ZNF706 (UniProt Q9Y5V0) 0.044
ZMYND8 isoform 19 (UniProt Q9ULU4) 0.006
ZNF639 (UniProt Q9UID6) 0.014
ZNF207 isoform 2 (UniProt O43670) -0.006
ZNF326 (UniProt Q5BKZ1) 0.044
ZNF207 isoform 4 (UniProt O43670) 0
ZMPSTE24 (UniProt O75844) -0.02
ZNF622 (UniProt Q969S3) 0.017
ZNF845 (UniProt Q96IR2) -0.113
ZNRD2 (UniProt G3V1B8) 0.135
ZKSCAN1 (UniProt P17029) -0.01
ZNFX1 (UniProt Q9P2E3) 0.075
ZKSCAN4 (UniProt Q969J2) -0.067

Each target was assayed with c1cn2cc(-c3ccc4cn[nH]c4c3)nc(Nc3ccc(N4CCOCC4)cc3)c2n1 [entospletinib] in the same assay as above.
Outline: as §1

log2 fold change, inactive:
ZNF609 (UniProt O15014) -0.026
ZNF316 (UniProt A6NFI3) -0.025
ZNF672 (UniProt Q499Z4) -0.003
ZNF629 (UniProt Q9UEG4) -0.038
ZMYM3 (UniProt Q14202) 0.019
ZW10 (UniProt O43264) 0.016
ZNF22 (UniProt P17026) 0.018
ZNF131 (UniProt P52739) 0.022
ZNF706 (UniProt Q9Y5V0) 0.015
ZMYND8 isoform 19 (UniProt Q9ULU4) -0.02
ZNF207 isoform 2 (UniProt O43670) 0.034
ZNF326 (UniProt Q5BKZ1) 0.015
ZNF207 isoform 4 (UniProt O43670) -0.025
ZMPSTE24 (UniProt O75844) 0.006
ZNF622 (UniProt Q969S3) -0.03
ZNRD2 (UniProt G3V1B8) -0.019
ZKSCAN1 (UniProt P17029) 0.01
ZNFX1 (UniProt Q9P2E3) 0.015
